Reference: US8106031B2, “Hydrolytically-resistant boron-containing therapeutics and methods of use” (Anacor Pharmaceuticals, Inc., priority 2006, dated 2012)
Some entries share one result that the patent states for a list of compounds.

What was measured:
[1] = test system: T. rubrum, T. mentagrophytes, C. albicans, C. neoformans and A. fumigatus; experiment: MIC against the panel of fungi tested; assay type: cell-based; conditions: relative to 9b, 1-phenyl group replaced
Description: MIC, or minimum inhibitory concentration, is the point where compound stops more than 90% of cell growth relative to an untreated control.
(§1) To determine the antifungal activity of these compounds we screened for their minimum inhibitory concentrations (MIC) against the major dermatophytes that cause onychomycosis, T. rubrum and T. mentagrophytes, and against the yeasts and molds C. albicans, C. neoformans and A. fumigatus to test for their broad spectrum activity. The antifungal agent ciclopirox, currently in use for the topical treatment of onychomycosis, was used as a reference.
(§2) All MIC testing against Trichophyton rubrum, Trichophyton mentagrophytes, Candida albicans, Cryptococcus neoformans and Aspergillus fumigatus were determined following the National Committee for Clinical Laboratory Standards (NCCLS) guidelines for antimicrobial testing of yeasts and filamentous fungi.^i,ii
Briefly, compounds were dissolved in DMSO and diluted in sterile water to give a working stock. Two-fold serial dilutions of the test compounds were prepared in 96-well plates. The plates were inoculated with the fungal suspensions to give a final inoculum size of 0.5−2.5×10^3 cells/mL for yeasts or 0.4−5×10^4 CFU/mL for filamentous fungi and then incubated for 24-168 h at 35° C. […]

[2] = test system: Trichophyton mentagrophytes; experiment: MIC against T. mentagrophytes (NCCLS broth dilution); assay type: cell-based; conditions: relative to 9b
Description: as §1, §2
Two-fold serial dilutions of the test compounds were prepared in 96-well plates. […] Pfaller M A, Chaturvedi V, Espinel-Ingroff A, Ghannoum M A, Gosey L L, Odds F C, Rex J H, Rinaldi M G, Sheehan D J, Walsh T J, Warnock D W. NCCLS publication M27-A2—Reference Method for Broth Dilution Antifungal Susceptibility Testing of Yeasts; Approved Standard—Second Edition. […] Pfaller M A, Chaturvedi V, Espinel-Ingroff A, Ghannoum M A, Gosey L L, Odds F C, Rex J H, Rinaldi M G, Sheehan D J, Walsh T J, Warnock D W. NCCLS publication M38-A—Reference Method for Broth Dilution Antifungal Susceptibility Testing of Filamentous Fungi; Approved Standard.

In the case of C=CB1OCc2cc(F)ccc21 [compound 11, 1,3-Dihydro-5-fluoro-1-vinyl-2,1-benzoxaborole], the “fold decrease in activity” value [1] is reported as 2-8 fold.

With Fc1ccc2c(c1)COB2c1ccoc1 [compound 12, 1,3-Dihydro-5-fluoro-1-(furan-3-yl)-2,1-benzoxaborole] the “fold decrease in activity” value [1] was 2-8 fold.

With Fc1ccc2c(c1)COB2c1ccsc1 [compound 13, 1,3-Dihydro-5-fluoro-1-(thiophen-3-yl)-2,1-benzoxaborole] the “fold decrease in activity against T. mentagrophytes” value [2] was 4-8 fold.

With Cc1cscc1B1OCc2cc(F)ccc21 [compound 14, 1,3-Dihydro-5-fluoro-1-(4-methylthiophen-3-yl)-2,1-benzoxaborole] the “fold decrease in activity against T. mentagrophytes” value [2] was 4-8 fold.
